Source: paper PMC12564422

Assays:
[1] = system: EGFR (epidermal growth factor receptor); test: competition (fluorescence displacement); settings: on AuNP, 3'-thiol on strand 1, about 50 nm AuNPs, resuspended in water, aptamer M and Atto 1.2e-7 M, EGFR 880 pM, 1 h incubation, Tris-EDTA buffer listed among materials, commercial protein, label: 5'-ATTO 647N on strand 2
[2] = system: EGFR (epidermal growth factor receptor); test: competition (fluorescence recovery by displacement of Atto strand); settings: on AuNP, Protocol A, mix +318% vs RES; 3'-thiol on strand 1; about 50 nm AuNPs, resuspended in water; aptamer M and Atto 1.2e-7 M, EGFR 880 pM, 1 h incubation; Tris-EDTA buffer listed among materials; commercial protein; label: 5'-ATTO 647N on strand 2
[3] = system: EGFR (epidermal growth factor receptor); test: competition (fluorescence; reversed assay, EGFR before Atto); settings: aptamer on AuNP, Protocol AREV, EGFR 0.88 nM, Atto 120 nM; 3'-thiol; about 50 nm AuNPs, resuspended in water; aptamer M and Atto 1.2e-7 M, EGFR 880 pM, 1 h incubation; Tris-EDTA buffer listed among materials; commercial protein; single-stranded DNA

Sequence	binding result ([1]; Protocol B (one intermediate wash), partial displacement, SPN +22%)	binding result ([1]; Protocol C (final wash only), Atto displaced into supernatant)	binding result [2]	binding result [3]
GGACGGATTTAATCGCCGTAGAAAAGCATGTCAAAGCCGGAACCGTCC / GCTTTTCTACGGC [aptamer M / Atto complementary oligomer duplex]	binds	binds	binds	
GGACGGATTTAATCGCCGTAGAAAAGCATGTCAAAGCCGGAACCGTCC [aptamer M (EGFR-specific)]				binds

Construct, isoform or probe ends are uncertain for at least one entry.
